The list shows a part of the results.

In the experiment the target is T1, OsSMF1 (Oryza sativa, UniProt Q6ZLB0 1-436).
T1 sequence: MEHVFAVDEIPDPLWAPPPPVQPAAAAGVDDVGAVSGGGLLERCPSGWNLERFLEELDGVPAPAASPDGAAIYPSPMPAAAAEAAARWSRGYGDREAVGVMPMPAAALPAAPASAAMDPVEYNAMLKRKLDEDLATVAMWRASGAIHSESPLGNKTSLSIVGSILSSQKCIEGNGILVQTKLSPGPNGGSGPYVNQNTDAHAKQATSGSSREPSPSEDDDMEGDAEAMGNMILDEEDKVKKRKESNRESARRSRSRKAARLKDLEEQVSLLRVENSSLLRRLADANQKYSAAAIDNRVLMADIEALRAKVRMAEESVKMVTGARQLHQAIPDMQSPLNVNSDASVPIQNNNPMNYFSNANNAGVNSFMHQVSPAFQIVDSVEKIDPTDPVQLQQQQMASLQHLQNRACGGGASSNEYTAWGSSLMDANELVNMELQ
Nature of the experiment: protein-binding microarray (RPBM); PBS, 2% BSA, 51.3 ng/ul salmon testes DNA, 50 uM zinc acetate, 200 nM TF, 25 C, 1 h; high values mean tight binding. The note with it: protein: recombinant; tags: N-terminal polyhistidine and DsRed monomer fusion (pET32a); chain copies: 2; label: CyDye5-dUTP incorporated in the synthesized complementary strand; 3' TTTTT single-stranded linker to array surface; dsDNA, one strand shown. The method, boiled down: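 Ni–NTA purification followed expression in E. coli BL21-CodonPlus of transcription factors fused N-terminally to a polyhistidine tag and DsRed. At 200 nM in PBS with 2% BSA, salmon testes DNA and 50 µM zinc acetate, the protein was incubated for 1 h at 25 °C with a custom Agilent array that had been primer-extended with Cy5-dUTP and blocked with 2% BSA. After washing, the array was read on an Axon 4000B scanner. The binding signal is per-feature fluorescence intensity in arbitrary units.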
Take “CTATGTTAGAGGGCAGTGGTGTATCAATTCATTGTCCTCCCGGAGTCACCTAGTGCAG”: the binding signal is 3300 fluorescence intensity (a.u.).
For “CCGGTCGTTTCCCGTATTGTTGGCATATATGTACACGGAGCGGAGTCACCTAGTGCAG”, the binding signal was 4830 fluorescence intensity (a.u.).
The value for “CCTAGACTTCCTCTCTCTCGCGTCGCGCTCGCCTTCGCCTCGGAGTCACCTAGTGCAG” was 3250 fluorescence intensity (a.u.); that for “AACGGGTTGTTTTGGTTTTGCTGATGTACGACATATCAAGCGGAGTCACCTAGTGCAG” was 4460 fluorescence intensity (a.u.); that for “AACAATAGTGGGTGATGTGGCAATGATTCTAGATCCTAGCCGGAGTCACCTAGTGCAG” was 18200 fluorescence intensity (a.u.).
Take “ATCCCTCTTTACTTAAAGACTACGGAAGAGTGCATGACAGCGGAGTCACCTAGTGCAG”: the binding signal is 3160 fluorescence intensity (a.u.).
For “AGTACACCTAGCTCTGTCTGTCTAGCTTAACGCCGTGTGTCGGAGTCACCTAGTGCAG”, the binding signal is 22500 fluorescence intensity (a.u.).
The value for “GATATAATACTGATCTCATATCCAAGTTTAATTTCAACATCGGAGTCACCTAGTGCAG” was 20300 fluorescence intensity (a.u.); that for “CGGATCCAATGTGCGGAACCGGCTCATGAACAGTGTGAAACGGAGTCACCTAGTGCAG” was 12700 fluorescence intensity (a.u.).
On to “GCGAGGCCCGGCCCAACGCCCAGCCCTTACCCCACACATGCGGAGTCACCTAGTGCAG”, for which the binding signal is 21500 fluorescence intensity (a.u.).
With “CCATCTCGGCCCATGAGGATGCTGACGTCACCGCGTCGTCCGGAGTCACCTAGTGCAG” the figure was 42700 fluorescence intensity (a.u.); with “ATCAGCCGCTTAAAATGTAGAGTACTCCCAAGCAACGTTGCGGAGTCACCTAGTGCAG”, 4140 fluorescence intensity (a.u.); with “AGACTCGTCGATGCTGGCGTCACCACCGTCCCCGACTTCTCGGAGTCACCTAGTGCAG”, 12700 fluorescence intensity (a.u.).
With “TTTCTTATAGGCACAATACTTTGTTTCAAAGTCAAAGAAGCGGAGTCACCTAGTGCAG” the figure was 3850 fluorescence intensity (a.u.); with “GGAAGAGAAGTTTGCCTTGTCAGCAACTGTAGTTTATTGCCGGAGTCACCTAGTGCAG”, 5430 fluorescence intensity (a.u.); with “AATATAGAATATCTCAATCGAGGTGTGGCTGACAGGTCACCGGAGTCACCTAGTGCAG”, 5520 fluorescence intensity (a.u.).
“TATAGAATTTTCTCTTAAAATACTTATCCGATTTATGATCCGGAGTCACCTAGTGCAG”: the binding signal was 54100 fluorescence intensity (a.u.).
With “ACGCCGGAGACACGCAAGGTGTGGTATGCCTCATTGCATCCGGAGTCACCTAGTGCAG” the figure was 4630 fluorescence intensity (a.u.); with “GGCGAATCTTGCAGTCTCATTTTCTACCAGTCCTGGTTTGCGGAGTCACCTAGTGCAG”, 3380 fluorescence intensity (a.u.).
With “GAGCCCACGCCGCGCAGATCCACCTCTCTCCGCCCTGGATCGGAGTCACCTAGTGCAG” the figure was 3450 fluorescence intensity (a.u.).
For the sequence “GAGCGCTGCGTGCGCGCGCGTCCGCGGCCACGCCATCCGCCGGAGTCACCTAGTGCAG”, the binding signal was 4600 fluorescence intensity (a.u.).
Turning to “CGGTGACACTGCATGGCCAATTGAGTTAGTCATTGCCCATCGGAGTCACCTAGTGCAG”, the binding signal was 3670 fluorescence intensity (a.u.).
The value for “ACCCCACAACGCACGCGTGAGTTCGTGACGCGTCACGCCCCGGAGTCACCTAGTGCAG” was 7320 fluorescence intensity (a.u.).
With “CTTTCATCACCACCGGCCCCGTGGCCCCACGCGTCAGGTCCGGAGTCACCTAGTGCAG” the figure was 4820 fluorescence intensity (a.u.); with “TAATTTGGTCCATGCCATGCTGATAAAGCATGTTTCTTCTCGGAGTCACCTAGTGCAG”, 3880 fluorescence intensity (a.u.); with “AGATTTGTCCATGTCATCACGAGTAAAAGTTTTATTTGTGCGGAGTCACCTAGTGCAG”, 7460 fluorescence intensity (a.u.).
The value for “TTTGATGTGCGTGCGTGCTGTACTTTGTAAGACGCAGCATCGGAGTCACCTAGTGCAG” was 3160 fluorescence intensity (a.u.); that for “TGGTGGTGGGTGAGTGTTGGGTGCGCAGGCTCTGGGGTAACGGAGTCACCTAGTGCAG” was 3430 fluorescence intensity (a.u.).
Take “CGGCTCCACCTCGCGCCCTGACCTGACGCGGATAGGTTTTCGGAGTCACCTAGTGCAG”: the binding signal is 4630 fluorescence intensity (a.u.).
The value for “TTGGAAGGAAGGCTTGGAAGATTTGTGATGGATGACAAGGCGGAGTCACCTAGTGCAG” was 3950 fluorescence intensity (a.u.).
With “GGCACCTCTCTCTCCGGTGAATCTCGCGTCCACGTTGGTTCGGAGTCACCTAGTGCAG” the figure was 22500 fluorescence intensity (a.u.); with “TTTTGTGGAAGCGTGTGGACACGTGGTGGGCCCTGGGCCTCGGAGTCACCTAGTGCAG”, 8630 fluorescence intensity (a.u.); with “CTCCCGGCAGAAGCAAGCGGGGCATGTGCGGCCGTCCGGCCGGAGTCACCTAGTGCAG”, 3600 fluorescence intensity (a.u.).
With “AGCGCTGCCCCGCCACGGTGGCAGGAGGACTGGCGCCGTCCGGAGTCACCTAGTGCAG” the figure was 5020 fluorescence intensity (a.u.).
Turning to “TCCATTGGGCATCCATAGTCCATGCACCATGATGGAGAGGCGGAGTCACCTAGTGCAG”, the binding signal was 4750 fluorescence intensity (a.u.).
On to “TTGTCTGTACTGTTAGCATGAGTCACTTGTGCATGTTTAGCGGAGTCACCTAGTGCAG”, for which the binding signal is 6730 fluorescence intensity (a.u.).
For the sequence “TTCTAATTACTATTTAAGCTTATCCTAATTAACTCACATGCGGAGTCACCTAGTGCAG”, the binding signal is 3230 fluorescence intensity (a.u.).
The value for “GTATAGATGACGGAAGCGGACTTCGTTTCGTTTTGTTTGGCGGAGTCACCTAGTGCAG” was 3400 fluorescence intensity (a.u.).
For “TTACTAGAGCTAATGAAGGCATGCCAAATTTGACATCATGCGGAGTCACCTAGTGCAG”, the binding signal was 3350 fluorescence intensity (a.u.).
For “TTTACGTTTGCCTGCATCTTTCTGACCTGTATACTAATTTCGGAGTCACCTAGTGCAG”, the binding signal was 5280 fluorescence intensity (a.u.).
As to “GCTCAGGTTCTGCATTATTGGCGCAGTACGTACGTGTTCACGGAGTCACCTAGTGCAG”, the binding signal is 3760 fluorescence intensity (a.u.).
The value for “TTTGCCATGTTTGATGTGGCTCAGATCCACTTACTTCGCGCGGAGTCACCTAGTGCAG” was 3870 fluorescence intensity (a.u.).
